# These are yes or no findings as the source states them, for the method shown. In cells and extracts the contact can be indirect. Some results given as binding are weak or reduced against the parent protein; the word gives no strength.
# Protein sequences, listed by entry. Tags and fused reporters are not part of them.
# UniProt Q14258: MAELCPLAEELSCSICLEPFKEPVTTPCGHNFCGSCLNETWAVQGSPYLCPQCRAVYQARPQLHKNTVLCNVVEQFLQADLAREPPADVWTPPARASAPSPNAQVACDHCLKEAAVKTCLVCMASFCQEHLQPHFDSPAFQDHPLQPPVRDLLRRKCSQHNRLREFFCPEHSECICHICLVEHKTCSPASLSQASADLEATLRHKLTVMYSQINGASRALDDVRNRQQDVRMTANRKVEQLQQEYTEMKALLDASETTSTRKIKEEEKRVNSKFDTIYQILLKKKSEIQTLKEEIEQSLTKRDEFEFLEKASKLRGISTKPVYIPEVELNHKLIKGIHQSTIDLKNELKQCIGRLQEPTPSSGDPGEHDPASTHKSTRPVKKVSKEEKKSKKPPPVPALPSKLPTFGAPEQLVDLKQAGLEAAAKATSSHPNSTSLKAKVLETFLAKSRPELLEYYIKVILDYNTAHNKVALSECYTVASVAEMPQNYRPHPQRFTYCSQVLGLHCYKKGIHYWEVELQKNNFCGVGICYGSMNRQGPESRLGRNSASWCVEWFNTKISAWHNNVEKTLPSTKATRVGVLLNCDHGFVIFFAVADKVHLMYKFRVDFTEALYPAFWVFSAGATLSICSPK
# Molecular target: T1, RPRD1B (regulation of nuclear pre-mRNA domain containing 1B) (human (in gastric cancer cell lines; endogenous or stably overexpressed not told)) (UniProt Q9NQG5)
# T1 sequence: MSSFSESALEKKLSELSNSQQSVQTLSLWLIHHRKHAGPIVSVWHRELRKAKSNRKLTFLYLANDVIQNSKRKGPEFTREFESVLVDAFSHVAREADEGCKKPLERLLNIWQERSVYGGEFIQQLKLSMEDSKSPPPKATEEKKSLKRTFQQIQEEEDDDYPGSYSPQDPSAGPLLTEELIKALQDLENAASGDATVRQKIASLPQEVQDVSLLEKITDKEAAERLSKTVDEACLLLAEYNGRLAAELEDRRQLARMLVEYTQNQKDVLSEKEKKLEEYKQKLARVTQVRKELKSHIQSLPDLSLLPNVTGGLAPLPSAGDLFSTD
# Experiment: co-IP; co-IP from gastric cancer cells; the precipitated protein, cell line and buffer are not told (no co-IP method in the methods section)
substance,measurement,value
E3 ubiquitin ligase TRIM25 (from UniProt Q14258 1-630),binding,binds
